No constants are given. Whether binding was seen depends on the method and setting. Some results given as binding are weak or reduced against the parent protein; the word gives no strength.
Target: BMP6 (UniProt P22004)
Test: similar binding assay (SPR)

Sequences of proteins named here, by UniProt entry; tags and fusion partners are left off. A change or cut given only in a name is not applied to a line headed by its entry. Residues count along the entry.
UniProt P22004, residues 382-513: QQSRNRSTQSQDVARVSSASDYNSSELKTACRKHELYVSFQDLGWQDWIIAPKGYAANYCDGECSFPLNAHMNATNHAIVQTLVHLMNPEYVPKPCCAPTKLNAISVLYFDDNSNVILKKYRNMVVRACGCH
UniProt P27037: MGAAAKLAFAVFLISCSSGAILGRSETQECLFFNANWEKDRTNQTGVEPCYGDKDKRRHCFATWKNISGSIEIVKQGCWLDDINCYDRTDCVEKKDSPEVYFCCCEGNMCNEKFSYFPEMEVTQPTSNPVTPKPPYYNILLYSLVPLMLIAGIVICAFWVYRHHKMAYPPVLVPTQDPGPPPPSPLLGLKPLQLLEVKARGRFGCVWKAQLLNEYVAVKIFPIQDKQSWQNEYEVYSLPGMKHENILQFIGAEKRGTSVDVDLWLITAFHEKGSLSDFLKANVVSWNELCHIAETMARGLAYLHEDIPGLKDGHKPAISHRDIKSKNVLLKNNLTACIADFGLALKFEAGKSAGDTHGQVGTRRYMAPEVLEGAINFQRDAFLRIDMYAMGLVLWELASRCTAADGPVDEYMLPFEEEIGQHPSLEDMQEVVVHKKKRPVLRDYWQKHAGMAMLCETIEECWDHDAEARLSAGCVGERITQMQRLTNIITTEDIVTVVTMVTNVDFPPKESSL

binding: binds
Substance: ActRIIA-mFc (from UniProt P27037 21-135) (Fc fusion)

From US20240252628A1
